Source: patent publication US10799473B2, “Methods of inhibiting IGF-1R activation or downtream signalling thereof to reduce radiation-induced cellular senescence” (The Henry M. Jackson Foundation for the Advancement of …, priority 2013, dated 2020)
“Also recorded” adds a separate entry of the source. For at least one compound, name, drawing or mass did not settle the structure.

What was measured:
[1] = system: Human pulmonary artery endothelial cells (HPAEC); test: Senescence-associated β-galactosidase (SA-β-gal) assay in X-ray irradiated HPAEC; type: cell-based; details: HPAEC pretreated 30 minutes with inhibitor (AG1024 5 μM, Ly294002 20 μM, rapamycin 500 nM, U0126 10 μM), 10 Gy X-rays, 4 days post-irradiation
Description: Cell Culture and Reagents. Human pulmonary artery endothelial cells (HPAEC) were obtained from Cell Applications, Inc. (San Diego, Calif.) and cultured in EBM-2 basal medium containing supplements and growth factors as indicated in the manufacturer's protocol (Lonza, Walkersville, Md.). Cells were maintained at 37° C. in a humidified atmosphere containing 5% CO2. Subconfluent HPAEC at passages 4-8 were used for all experiments. The following chemical inhibitors and their final concentrations were used: […] 20 mM N-acetyl cysteine (NAC) was dissolved in distilled H2O. Cell Irradiation: HPAEC were either irradiated or sham-irradiated at subconfluence (70-90%). Irradiations were conducted using RS2000 Biological Irradiator (Rad Source Technologies, Alpharetta, Ga.) with 0 3 mm Cu shielding at a dose rate of 2.4 Gy/min (160 kV, 25 mA) at room temperature. Senescence-associated fl-galactosidase (SA-β-gal) Assay. SA-β-gal assay was performed according to established protocols with minor modifications (Dimri, Lee et al. 1995; Bandyopadhyay, Gatza et al. 2005). To avoid density-dependent false positive expression of SA-β-gal, HPAEC were seeded at a density of 1.0-2.0×10^4 on 12-well or 6-well dishes and allowed to reach 50-70% confluence prior to treatment. […]

[2] = system: Human pulmonary artery endothelial cells (HPAEC); test: Cell morphology / cellular volume of X-ray irradiated HPAEC; type: cell-based; details: inhibitor pretreatment (AG1024 5 μM, Ly294002 20 μM, rapamycin 500 nM), 10 Gy X-rays, within 96 h
Description: (§1) Cell Culture and Reagents. Human pulmonary artery endothelial cells (HPAEC) were obtained from Cell Applications, Inc. (San Diego, Calif.) and cultured in EBM-2 basal medium containing supplements and growth factors as indicated in the manufacturer's protocol (Lonza, Walkersville, Md.). Cells were maintained at 37° C. in a humidified atmosphere containing 5% CO2. Subconfluent HPAEC at passages 4-8 were used for all experiments. The following chemical inhibitors and their final concentrations were used: AG1024 (5 μM, EMD Millipore, Billerica, Mass.), U0126 (10 μM), Ly294002 (20 μM), rapamycin (500 nM). […] 20 mM N-acetyl cysteine (NAC) was dissolved in distilled H2O.
(§2) Cell Irradiation: HPAEC were either irradiated or sham-irradiated at subconfluence (70-90%). Irradiations were conducted using RS2000 Biological Irradiator (Rad Source Technologies, Alpharetta, Ga.) with 0 3 mm Cu shielding at a dose rate of 2.4 Gy/min (160 kV, 25 mA) at room temperature.
Senescence-associated fl-galactosidase (SA-β-gal) Assay. SA-β-gal assay was performed according to established protocols with minor modifications (Dimri, Lee et al. 1995; Bandyopadhyay, Gatza et al. 2005). To avoid density-dependent false positive expression of SA-β-gal, HPAEC were seeded at a density of 1.0-2.0×10^4 on 12-well or 6-well dishes and allowed to reach 50-70% confluence prior to treatment. […]

[3] = system: p53 and p21/wafl; test: Western blotting for p53 and p21/wafl expression in irradiated HPAEC; type: cell-based, human; details: 500 nM rapamycin or 20 μM Ly294002, 10 Gy X-rays, western blot
Description: as §1, §2
Western blotting. […]
Protein concentrations from whole cell lysates were determined using Protein® BCA Protein Assay Kit (Thermo Scientific, Rockford, Ill.). […] Proteins were detected with horseradish peroxidase-linked secondary antibodies and SuperSignal® West Pico Chemiluminescent Substrate (Pierce, Rockford, Ill.). […]

[4] = system: cells exposed to DNA-damaging agents; details: literature; cited from earlier work
[5] = system: radiation-induced mucositis; details: mice, literature; cited from earlier work

In the case of `CO[C@H]1C[C@@H]2CC[C@@H](C)[C@@](O)(O2)C(=O)C(=O)N2CCCC[C@H]2C(=O)O[C@H]([C@H](C)C[C@@H]2CC[C@@H](O)[C@H](OC)C2)CC(=O)[C@H](C)/C=C(\C)[C@@H](O)[C@@H](OC)C(=O)[C@H](C)C[C@H](C)/C=C/C=C/C=C/1C` [rapamycin], the “radiation-induced accelerated senescence (SA-β-gal activity, percentage of SA-β-gal positive cells)” value [1] is reported as “attenuation; also recorded: attenuated”, the “cellular morphology / change in cellular volume after radiation exposure” value [2] is reported as “maintenance of normal cellular morphology” and the “radiation-induced p21/wafl expression” value [3] is reported as “attenuated”. The “accelerated senescence / increase in SA-β-gal activity in cells exposed to DNA-damaging agents” value [4] was “prevents the increase in SA-β-gal activity; also recorded: prevents accelerated senescence” and the “protection from radiation-induced mucositis” value [5] was “protects mice from radiation-induced mucositis”.
